Test [1] deals with T1, FLAG-MTBP (MDM2 binding protein), in HEK293 cells (UniProt Q96DY7).
T1 sequence: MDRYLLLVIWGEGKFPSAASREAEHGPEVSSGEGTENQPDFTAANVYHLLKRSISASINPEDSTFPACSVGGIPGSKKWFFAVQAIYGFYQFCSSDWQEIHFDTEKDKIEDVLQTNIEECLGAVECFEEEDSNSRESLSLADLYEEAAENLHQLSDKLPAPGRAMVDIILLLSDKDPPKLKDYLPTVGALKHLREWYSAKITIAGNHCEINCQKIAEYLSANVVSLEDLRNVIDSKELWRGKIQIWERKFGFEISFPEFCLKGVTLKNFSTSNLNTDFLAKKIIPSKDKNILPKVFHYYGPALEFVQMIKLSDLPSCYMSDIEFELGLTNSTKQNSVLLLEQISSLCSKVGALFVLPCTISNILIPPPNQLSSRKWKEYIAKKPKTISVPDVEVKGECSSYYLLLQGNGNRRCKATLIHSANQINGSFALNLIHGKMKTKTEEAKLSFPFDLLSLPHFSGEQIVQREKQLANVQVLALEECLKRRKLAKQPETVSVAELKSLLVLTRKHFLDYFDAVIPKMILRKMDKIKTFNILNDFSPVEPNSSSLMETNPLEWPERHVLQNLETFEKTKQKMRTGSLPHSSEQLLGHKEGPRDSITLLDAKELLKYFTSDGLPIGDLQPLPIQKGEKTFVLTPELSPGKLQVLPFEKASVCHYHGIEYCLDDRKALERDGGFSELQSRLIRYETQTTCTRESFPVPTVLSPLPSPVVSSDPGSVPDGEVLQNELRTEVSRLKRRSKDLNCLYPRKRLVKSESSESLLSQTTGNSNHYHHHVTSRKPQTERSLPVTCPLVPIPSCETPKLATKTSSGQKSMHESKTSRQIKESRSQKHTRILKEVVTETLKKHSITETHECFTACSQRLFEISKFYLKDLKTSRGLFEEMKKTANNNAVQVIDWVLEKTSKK
The test can be described thus: co-IP; HEK293 cells co-transfected with HA-PXR and FLAG-MTBP; which protein was precipitated is not told.

In test [2] the target is T2, FLAG-MTBP (MDM2 binding protein), in MHCC97-H cells (UniProt Q96DY7).
T2 sequence: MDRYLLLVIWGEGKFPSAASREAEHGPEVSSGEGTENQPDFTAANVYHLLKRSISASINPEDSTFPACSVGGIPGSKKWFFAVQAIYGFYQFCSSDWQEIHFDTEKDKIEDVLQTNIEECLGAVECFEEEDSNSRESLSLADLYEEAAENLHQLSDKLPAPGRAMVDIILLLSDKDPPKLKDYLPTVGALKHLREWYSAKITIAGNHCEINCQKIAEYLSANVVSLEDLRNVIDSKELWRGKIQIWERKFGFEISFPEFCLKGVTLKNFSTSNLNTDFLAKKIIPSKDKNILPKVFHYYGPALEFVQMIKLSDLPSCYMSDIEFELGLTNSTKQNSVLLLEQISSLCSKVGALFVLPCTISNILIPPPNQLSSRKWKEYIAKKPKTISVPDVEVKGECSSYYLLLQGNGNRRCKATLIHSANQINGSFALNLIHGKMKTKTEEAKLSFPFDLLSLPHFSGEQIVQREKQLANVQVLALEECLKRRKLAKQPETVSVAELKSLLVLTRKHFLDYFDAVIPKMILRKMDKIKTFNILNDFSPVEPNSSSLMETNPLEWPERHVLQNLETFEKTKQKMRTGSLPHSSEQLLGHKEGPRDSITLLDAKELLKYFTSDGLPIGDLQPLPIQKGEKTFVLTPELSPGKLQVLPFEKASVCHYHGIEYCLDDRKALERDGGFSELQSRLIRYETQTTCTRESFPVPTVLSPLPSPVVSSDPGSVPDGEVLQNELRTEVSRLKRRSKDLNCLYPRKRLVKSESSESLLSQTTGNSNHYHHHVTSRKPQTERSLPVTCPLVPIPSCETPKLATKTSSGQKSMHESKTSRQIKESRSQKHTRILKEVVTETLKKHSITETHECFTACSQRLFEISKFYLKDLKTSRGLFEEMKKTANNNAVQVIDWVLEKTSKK
The test can be described thus: co-IP; MHCC97-H cells transfected with FLAG-MTBP; which protein was precipitated is not told.

The text below walks through data of PMC8264664.

These are yes or no findings as the source states them, for the method shown. In cells and extracts the contact can be indirect. Some binding calls cover weakened binding; strength is not graded here. Tags and fused reporters may be left off the sequences shown.

B1: HA-PXR (Pregnane X receptor), in HEK293 cells (protein, UniProt O75469 1-434)
chain: MEVRPKESWNHADFVHCEDTESVPGKPSVNADEEVGGPQICRVCGDKATGYHFNVMTCEGCKGFFRRAMKRNARLRCPFRKGACEITRKTRRQCQACRLRKCLESGMKKEMIMSDEAVEERRALIKRKKSERTGTQPLGVQGLTEEQRMMIRELMDAQMKTFDTTFSHFKNFRLPGVLSSGCELPESLQAPSREEAAKWSQVRKDLCSLKVSLQLRGEDGSVWNYKPPADSGGKEIFSLLPHMADMSTYMFKGIISFAKVISYFRDLPIEDQISLLKGAAFELCQLRFNTVFNAETGTWECGRLSYCLEDTAGGFQQLLLEPMLKFHYMLKKLQLHEEEYVLMQAISLFSPDRPGVLQHRVVDQLQEQFAITLKSYIECNRPQPAHRFLFLKIMAMLTELRSINAQHTQRLLRIQDIHPFATPLMQELFGITGS
Take B1: the binding entry in test [1] is given as “binds”.

B2: PXR (Pregnane X receptor) in MHCC97-H cells (protein, UniProt O75469 1-434)
chain: MEVRPKESWNHADFVHCEDTESVPGKPSVNADEEVGGPQICRVCGDKATGYHFNVMTCEGCKGFFRRAMKRNARLRCPFRKGACEITRKTRRQCQACRLRKCLESGMKKEMIMSDEAVEERRALIKRKKSERTGTQPLGVQGLTEEQRMMIRELMDAQMKTFDTTFSHFKNFRLPGVLSSGCELPESLQAPSREEAAKWSQVRKDLCSLKVSLQLRGEDGSVWNYKPPADSGGKEIFSLLPHMADMSTYMFKGIISFAKVISYFRDLPIEDQISLLKGAAFELCQLRFNTVFNAETGTWECGRLSYCLEDTAGGFQQLLLEPMLKFHYMLKKLQLHEEEYVLMQAISLFSPDRPGVLQHRVVDQLQEQFAITLKSYIECNRPQPAHRFLFLKIMAMLTELRSINAQHTQRLLRIQDIHPFATPLMQELFGITGS
Consider B2, for which the binding result in test [2] is given as “binds”.
